In one assay the target is Myo6 834-955 (mouse) (UniProt Q64331). In words: SEC-MALS; fragments of the 3HB/SAH junction on Superdex 200 10/300 Increase, 0.5 mL/min; titration; apparent KD, dimer to monomers; both purified. For orientation: Size exclusion chromatography separates by hydrodynamic size, large species first.
The target in assay [1] is Myo6 875-940 T888D.R892E.V903D (mouse) (UniProt Q64331). Briefly: SEC-MALS; injection of 50 µL at 10 mg/mL in 10 mM Tris-HCl pH 7.5, 50 mM NaCl, 5 mM NaN3, 0.5 mM TCEP; peak concentration by the in-line refractometer; both purified.

By UniProt entry, the sequences of proteins in these tests, tags left out. Where a name states a change or a piece, a line headed by the entry shows the natural chain unless it says otherwise. Chains listed by the source or under a name are the forms on record and can include a tag or linker. Residues count along the entry.
Myo6 834-955 (Q64331, residues 834-955): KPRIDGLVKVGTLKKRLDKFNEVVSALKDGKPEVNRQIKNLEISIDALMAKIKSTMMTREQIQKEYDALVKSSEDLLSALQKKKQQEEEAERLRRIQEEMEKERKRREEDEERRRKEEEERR
Myo6 875-940 T888D.R892E.V903D (Q64331, form named): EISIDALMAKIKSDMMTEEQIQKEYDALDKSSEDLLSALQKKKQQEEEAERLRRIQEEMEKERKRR

These are yes or no findings as the source states them, for the method shown.

As to “Myo6 834-955 (from UniProt Q64331 834-955) (domain or fragment)”, the binding result in the assay with Myo6 834-955 (mouse) is on record as “no binding (tested: 30 µM (peak concentration))”.

“Myo6 875-940 T888D.R892E.V903D (from UniProt Q64331 875-940) (domain or fragment)”: in assay [1], the binding result was “no binding (tested: 43 µM (peak concentration))”.

These data come from publication PMC10593786.
